The assay in a line: qHTS Assay for Lipid Storage Modulators in Drosophila S3 Cells.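 On cell number change: cells counted by Cell Tracker Red CMTPX staining in the red channel.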 The note with it: BODIPY lipid droplet fluorescence, 18-24 h; for cell number change: measured here: cell count max response, cells fed with added oleic acid. An outline of the steps: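 Laser-scanning cytometry quantifies lipid droplet accumulation (500–530 nm total intensity; droplet/cell object ratio) in oleic acid-fed (400 uM added) Drosophila S3 cells treated with a concentration series. 20 uM Triacsin C defined 100% inhibition.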

The mark [1] stands for this setting: measured here: lipid fluorescence (Fed channel) AC50, cells fed with added oleic acid.
Where [2] appears, read: measured here: cell number channel AC50, cells fed with added oleic acid.

This is one part of the list. Further columns of the screen follow, without active or inactive calls. Most of these compounds were active or inconclusive in the main read-out, so they are no random draw. Words in brackets tell the shape of the fitted curve; partial curves, single points and poor fits give uncertain potencies.

Consider `O=C(O)CCN1C(=O)c2ccc(NC(=O)c3ccco3)cc2C1=O`, for which the cell number change was -7.32%.

In the case of `CC(=O)c1ccc(O)c(CSC2=NCCS2)c1`, the AC50 under setting [1] is 0.0731 µM [rising, single point].

As for `COC(=O)CC(=O)CSc1nc(C)cc(C)c1C#N`, the cell number change was determined as 18%. In addition, under setting [1], the AC50 is 29.1 µM [rising, single point].

In the case of `N/C(=N\OC(=O)/C=C/c1ccccc1)c1ccccc1`, under setting [2], the concentration at half-maximal activity (AC50) was 0.461 µM [rising, single point].

As to `Cc1ccc(OCCNCc2ccccc2)c(C)c1`, the cell number change is -7.14%. Also, the concentration at half-maximal activity (AC50) under setting [1] is 29.1 µM [rising, single point].

Turning to `CC1CCCCC1N(C)C1CCN(C(=O)CNC(=O)/C=C/c2cccc(Cl)c2)CC1` (stereo not given), the cell number change was determined as 28.3%. For the same compound, the AC50 under setting [1] is 6.51 µM [rising, single point].

As to `CCOc1ccc(C2/C(=C(\O)c3ccc(OC)c(OC)c3)C(=O)C(=O)N2c2cc(C)on2)cc1OC` (stereo not given), the cell number change came to 32.4%. Besides, the half-maximal activity concentration (AC50) under setting [2] was 29.1 µM [rising, single point].

As to `O=C(O)c1cc(-c2ccc3c(c2)OCO3)nc2ccc(Br)cc12`, the cell number change is -36.2%. Also, the AC50 under setting [2] was 0.82 µM [falling, full curve]. The concentration at half-maximal activity (AC50) under setting [1] is 0.82 µM [falling, full curve].

Consider `CN(CC(=O)Nc1c(Cl)cccc1Cl)C(=O)c1cc(-c2cccs2)nn1-c1ccccc1`, for which the cell number change worked out at 31.7%.

With `O=C1CCC(=O)N1c1ccc(NC2CCN(Cc3ccccc3)CC2)c([N+](=O)[O-])c1`, the cell number change worked out at 9.29%.

In the case of `Nc1c(-c2ccccc2)c(CN2CCOCC2)nn1-c1cccc([N+](=O)[O-])c1`, the cell number change was found to be 13%.

As for `Oc1ccccc1C=NCC(O)c1ccccc1` (stereo not given), the cell number change was 6.02%.

As to `Cc1ccc(S(=O)(=O)N2CCOCC2)cc1NC(=O)CNCc1ccccc1Cl`, the cell number change stood at 24.5%.

As for `COc1ccc(S(=O)(=O)N2CCOCC2)cc1NC(=O)Cc1c(F)cccc1Cl`, the cell number change stood at 0.94%.

Turning to `Cc1nnc(NC(=O)c2ccc3c(c2)C(=O)N(CCC(C)C)C3=O)s1`, the cell number change is -9.37%.

Take `COc1ccc2c(c1)C=CC1(O2)N(CCO)c2ccccc2C1(C)C` (stereo not given): the cell number change is -43.1%. Moreover, the half-maximal activity concentration (AC50) under setting [2] is 23.1 µM [falling, single point]. Also, the half-maximal activity concentration (AC50) under setting [1] was 16.4 µM [falling, single point].

Turning to `Cc1[nH]nc(N)c1-c1ccccc1`, the cell number change came to 15.5%. For the same compound, the AC50 under setting [1] is 29.1 µM [rising, single point].

Take `CC1CCCCC1NC(=O)c1ccc(-n2cncn2)c([N+](=O)[O-])c1` (stereo not given): the cell number change is -32.8%. The AC50 under setting [2] was 2.31 µM [falling, partial curve, poor fit].

For the compound `Cc1cc(/C(N)=N/OC(=O)c2cccc(Cl)c2)no1`, the concentration at half-maximal activity (AC50) under setting [1] is 29.1 µM [rising, single point].

For `Cc1cccc(NC(=O)c2cc(C)nc3ccccc23)c1`, under setting [1], the concentration at half-maximal activity (AC50) is 0.651 µM [rising, single point].

In the case of `CCOc1cc(CNc2ccc(OC)cc2)cc(Br)c1OCC(=O)NC(C)(C)C`, the cell number change is 25.9%. Moreover, the concentration at half-maximal activity (AC50) under setting [2] was 0.92 µM [rising, full curve, poor fit]. Also, the concentration at half-maximal activity (AC50) under setting [1] is 4.61 µM [rising, single point].

Take `C[C@]12CC[C@H]3[C@@H](CCC4=CC(=O)CC[C@@]43C)[C@@H]1CC[C@@H]2C(=O)CO`: the cell number change came out at 12.2%. For the same compound, the AC50 under setting [2] was 0.731 µM [rising, full curve]. In addition, the AC50 under setting [1] was 5.8 µM [rising, partial curve].

As for `CC(C)NC(=O)c1ccccc1S(=O)c1ccccc1C#N` (stereo not given), the cell number change amounted to 17.4%. Besides, the AC50 under setting [1] is 29.1 µM [rising, single point].

Turning to `Cc1ccc2cc(CN(Cc3ccco3)C(=O)NCc3ccccc3)c(=O)[nH]c2c1C`, the cell number change is -6.42%. The half-maximal activity concentration (AC50) under setting [1] is 2.06 µM [rising, partial curve].

Turning to `FC(F)(F)c1ccc2c(c1)n(Cc1ccccc1)c1[n+]2CCCCC1`, the cell number change worked out at 24.5%. Moreover, the AC50 under setting [1] was 0.116 µM [falling, full curve, poor fit].

In the case of `Cc1ccc(C)c(C(=O)COC(=O)c2c(-c3ccccc3)noc2C)c1`, the cell number change was determined as 74.5%. Besides, the half-maximal activity concentration (AC50) under setting [2] was 16.4 µM [rising, partial curve].

Consider `COc1ccc(NC(=O)CSc2nnc(CC(=O)Nc3ccc(F)cc3)n2C)cc1`, for which the cell number change stood at 9.52%.

As for `O=Cc1ccc(N2CCCCC2)cc1`, the cell number change amounted to 8.31%. For the same compound, under setting [1], the concentration at half-maximal activity (AC50) is 0.517 µM [rising, full curve].

For the compound `COc1cccc(NC(=O)Cn2c(-c3cncs3)nc3ccccc32)c1`, the cell number change is 31.1%. Also, under setting [2], the AC50 is 0.461 µM [rising, full curve, poor fit].

With `Cn1nc(-c2ccc(Cl)cc2)c2cc(C(=O)NCCCN3CCOCC3)sc21`, the cell number change was found to be 40.7%. The AC50 under setting [2] is 20.6 µM [rising, single point].

With `Cc1sc2nc(C3CC3)nc(SCC(=O)N3c4ccccc4CC3C)c2c1C` (stereo not given), the cell number change is 6.19%.

Consider `CCOC(=O)c1c(C)[nH]c(C)c1S(=O)(=O)NCCCN1CCOCC1`, for which the cell number change stood at 16.4%. For the same compound, the AC50 under setting [1] is 29.1 µM [rising, partial curve, poor fit].

As to `COc1ccc(OCC(=O)Nc2c3c(nn2-c2ccc(OC)cc2)CS(=O)(=O)C3)cc1`, the cell number change is -28.2%. Further, the AC50 under setting [1] was 20.6 µM [falling, single point].

Take `Cc1cc(C)c(C(=O)C(C)OC(=O)Cc2n[nH]c(=O)c3ccccc23)cc1C` (stereo not given): the cell number change is 13%. In addition, under setting [1], the half-maximal activity concentration (AC50) is 0.651 µM [rising, full curve].

For the compound `O=C(O)Cn1cc2c(n1)CCCCC2`, the cell number change is -9.37%. Under setting [1], the AC50 is 0.00461 µM [rising, full curve, poor fit].

Turning to `CC(C)CNC(=S)NNC(=O)c1ccc2c(c1)OCO2`, the cell number change turned out to be 47.5%. The AC50 under setting [2] was 20.6 µM [rising, partial curve, poor fit]. Also, under setting [1], the AC50 is 16.4 µM [rising, partial curve, poor fit].

On to `CNC(=S)N/N=C/c1c(C)nn(-c2ccccc2)c1Cl`, for which the cell number change amounted to 3.76%. Further, under setting [1], the AC50 is 0.13 µM [rising, full curve, poor fit].

Consider `CC(C)c1cc(C(=O)N2CCCC(CCC(=O)NCc3ccccc3F)C2)n(C)n1` (stereo not given), for which the cell number change was -22.4%. In addition, under setting [1], the AC50 was 8.2 µM [falling, partial curve].

`O=C(c1c(O)c2ccccc2oc1=O)C1CCC1`: the cell number change is -17.5%. The AC50 under setting [1] was 29.1 µM [falling, single point].

As to `Nc1nnnn1/N=C/c1ccco1`, the cell number change is 7.76%. Besides, the AC50 under setting [1] is 6.51 µM [falling, single point].

Consider `CCn1c(COc2ccccc2C)nnc1SCC(=O)Nc1cc(C)on1`, for which the cell number change is -14.2%. Moreover, the AC50 under setting [2] was 6.51 µM [falling, single point].

For the compound `COc1ccc(-n2nc(C(=O)NCC(=O)N3CCN(C)CC3)c3ccccc3c2=O)cc1`, the cell number change came out at 4.5%. The AC50 under setting [1] was 29.1 µM [rising, single point].
